Data from the supplement of paper PMC8728848.
This is one part of the list.

Experiments:
Assay in all cases: glycan array binding signal (z-score within array); higher = stronger binding
Conditions in all cases: glycan notation: IUPAC condensed, linker removed
[1] = target: Gal(b1-4)GlcNAc(b1-3)Gal(b1-4)GlcNAc(b1-3)Gal(b1-4)GlcNAc
In short: (§1)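 From the Consortium for Functional Glycomics database, 3228 arrays were curated, keeping only those whose protein sequence was available. Binding is given as a within-array Z-score averaged across arrays sharing a protein sequence and across linkers. Negative Z-scores can be read as non-binding.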

[2] = target: Gal(b1-4)GlcNAc(b1-3)Gal(b1-4)GlcNAc(b1-3)Gal(b1-4)GlcNAc(b1-2)Man(a1-3)[Gal(b1-4)GlcNAc(b1-3)Gal(b1-4)GlcNAc(b1-3)Gal(b1-4)GlcNAc(b1-2)Man(a1-6)]Man(b1-4)GlcNAc(b1-4)GlcNAc
In short: as §1

[3] = target: Gal(b1-4)GlcNAc(b1-3)Gal(b1-4)GlcNAc(b1-3)Gal(b1-4)GlcNAc(b1-2)Man(a1-3)[Gal(b1-4)GlcNAc(b1-3)Gal(b1-4)GlcNAc(b1-3)Gal(b1-4)GlcNAc(b1-2)Man(a1-6)]Man(b1-4)GlcNAc(b1-4)[Fuc(a1-6)]GlcNAc
In short: as §1

[4] = target: Gal(b1-4)GlcNAc(b1-3)Gal(b1-4)GlcNAc(b1-3)Gal(b1-4)GlcNAc(b1-2)[Gal(b1-4)GlcNAc(b1-3)Gal(b1-4)GlcNAc(b1-3)Gal(b1-4)GlcNAc(b1-6)]Man(a1-6)[Gal(b1-4)GlcNAc(b1-3)Gal(b1-4)GlcNAc(b1-3)Gal(b1-4)GlcNAc(b1-2)Man(a1-3)]Man(b1-4)GlcNAc(b1-4)[Fuc(a1-6)]GlcNAc
In short: as §1

[5] = target: Gal(b1-4)GlcNAc(b1-3)Gal(b1-4)GlcNAc(b1-3)Gal(b1-4)GlcNAc(b1-3)Gal(b1-4)GlcNAc(b1-2)Man(a1-3)[Gal(b1-4)GlcNAc(b1-3)Gal(b1-4)GlcNAc(b1-3)Gal(b1-4)GlcNAc(b1-3)Gal(b1-4)GlcNAc(b1-2)Man(a1-6)]Man(b1-4)GlcNAc(b1-4)GlcNAc
In short: as §1

[6] = target: Gal(b1-4)GlcNAc(b1-3)Gal(b1-4)GlcNAc(b1-3)Gal(b1-4)GlcNAc(b1-3)Gal(b1-4)GlcNAc(b1-2)Man(a1-3)[Gal(b1-4)GlcNAc(b1-3)Gal(b1-4)GlcNAc(b1-3)Gal(b1-4)GlcNAc(b1-3)Gal(b1-4)GlcNAc(b1-2)Man(a1-6)]Man(b1-4)GlcNAc(b1-4)[Fuc(a1-6)]GlcNAc
In short: as §1

[7] = target: Gal(b1-4)GlcNAc(b1-3)Gal(b1-4)GlcNAc(b1-3)Gal(b1-4)GlcNAc(b1-3)Gal(b1-4)GlcNAc(b1-2)[Gal(b1-4)GlcNAc(b1-3)Gal(b1-4)GlcNAc(b1-3)Gal(b1-4)GlcNAc(b1-3)Gal(b1-4)GlcNAc(b1-6)]Man(a1-6)[Gal(b1-4)GlcNAc(b1-3)Gal(b1-4)GlcNAc(b1-3)Gal(b1-4)GlcNAc(b1-3)Gal(b1-4)GlcNAc(b1-2)Man(a1-3)]Man(b1-4)GlcNAc(b1-4)[Fuc(a1-6)]GlcNAc
In short: as §1

[8] = target: Gal(b1-4)GlcNAc(b1-3)Gal(b1-4)GlcNAc(b1-3)Gal(b1-4)GlcNAc(b1-3)Gal(b1-4)GlcNAc(b1-3)Gal(b1-4)GlcNAc(b1-2)Man(a1-3)[Gal(b1-4)GlcNAc(b1-3)Gal(b1-4)GlcNAc(b1-3)Gal(b1-4)GlcNAc(b1-3)Gal(b1-4)GlcNAc(b1-3)Gal(b1-4)GlcNAc(b1-2)Man(a1-6)]Man(b1-4)GlcNAc(b1-4)GlcNAc
In short: as §1

[9] = target: Gal(b1-4)GlcNAc(b1-3)Gal(b1-4)GlcNAc(b1-3)Gal(b1-4)GlcNAc(b1-3)Gal(b1-4)GlcNAc(b1-3)Gal(b1-4)GlcNAc(b1-2)Man(a1-3)[Gal(b1-4)GlcNAc(b1-3)Gal(b1-4)GlcNAc(b1-3)Gal(b1-4)GlcNAc(b1-3)Gal(b1-4)GlcNAc(b1-3)Gal(b1-4)GlcNAc(b1-2)Man(a1-6)]Man(b1-4)GlcNAc(b1-4)[Fuc(a1-6)]GlcNAc
In short: as §1

[10] = target: Gal(b1-4)GlcNAc(b1-3)Gal(b1-4)GlcNAc(b1-3)Gal(b1-4)GlcNAc(b1-3)Gal(b1-4)GlcNAc(b1-3)Gal(b1-4)GlcNAc(b1-2)[Gal(b1-4)GlcNAc(b1-3)Gal(b1-4)GlcNAc(b1-3)Gal(b1-4)GlcNAc(b1-3)Gal(b1-4)GlcNAc(b1-3)Gal(b1-4)GlcNAc(b1-6)]Man(a1-6)[Gal(b1-4)GlcNAc(b1-3)Gal(b1-4)GlcNAc(b1-3)Gal(b1-4)GlcNAc(b1-3)Gal(b1-4)GlcNAc(b1-3)Gal(b1-4)GlcNAc(b1-2)Man(a1-3)]Man(b1-4)GlcNAc(b1-4)[Fuc(a1-6)]GlcNAc
In short: as §1

[11] = target: Gal(b1-4)GlcNAc(b1-3)Gal(b1-4)GlcNAc(b1-3)Gal(b1-4)GlcNAc(b1-3)Gal(b1-4)GlcNAc(b1-3)Gal(b1-4)GlcNAc(b1-3)Gal(b1-4)GlcNAc(b1-2)Man(a1-3)[Gal(b1-4)GlcNAc(b1-3)Gal(b1-4)GlcNAc(b1-3)Gal(b1-4)GlcNAc(b1-3)Gal(b1-4)GlcNAc(b1-3)Gal(b1-4)GlcNAc(b1-3)Gal(b1-4)GlcNAc(b1-2)Man(a1-6)]Man(b1-4)GlcNAc(b1-4)GlcNAc
In short: as §1

[12] = target: Gal(b1-4)GlcNAc(b1-3)Gal(b1-4)GlcNAc(b1-3)GalNAc
In short: as §1

[13] = target: Gal(b1-4)GlcNAc(b1-3)Gal(b1-4)GlcNAc(b1-3)[Gal(b1-4)GlcNAc(b1-3)Gal(b1-4)GlcNAc(b1-6)]GalNAc
In short: as §1

[14] = target: Gal(b1-4)GlcNAc(b1-3)Gal(b1-4)GlcNAc(b1-6)[Gal(b1-3)]GalNAc
In short: as §1

[15] = target: Gal(b1-4)GlcNAc(b1-3)Gal(b1-4)[Fuc(a1-3)]GlcNAc(b1-3)Gal(b1-4)[Fuc(a1-3)]GlcNAc
In short: as §1

[16] = target: Gal(b1-4)GlcNAc(b1-3)GalNAc
In short: as §1

[17] = target: Gal(b1-4)GlcNAc(b1-3)[Fuc(a1-3)GlcNAc(b1-6)]Gal(b1-4)Glc
In short: as §1

[18] = target: Gal(b1-4)GlcNAc(b1-3)[Gal(b1-4)GlcNAc(b1-6)]Gal(b1-4)GlcNAc
In short: as §1

[19] = target: Gal(b1-4)GlcNAc(b1-3)[GlcNAc(b1-6)]Gal(b1-4)GlcNAc
In short: as §1

B1: HA-61200 (Pseudomonas aeruginosa), Q02SP8_PSEAB (protein)
chain: MNKCYALVWNVSQGCWNVVSEGSRRRGKPAGAKAAIASVLALLGATALAPAYALPSGGTVVGGSANGEIHLSGGNSLSVNQKVDKLIANWDSFSVAAGERVIFNQPSSSSIALNRVIGTKASDIQGRIDANGQVFLVNPNGVLFGRGAQVNVGGLVASTLDITDAEFNGNSSRYRFTGPSTNGVLNHGGAITAAEGGSIALLGAQVDNRGTVLAQMGGVGLGAGSDLTLNFDGNKLLDIRVDAGVANALASNGGLLKADGGRVLMAARTANALLNTVVNSQGAIEARSLRGKNGRIVLDG
glycan array binding signal (z-score) [1]: -0.492
glycan array binding signal (z-score) [2]: 3.1
glycan array binding signal (z-score) [3]: 3.46
glycan array binding signal (z-score) [4]: 0.401
glycan array binding signal (z-score) [5]: 5.18
glycan array binding signal (z-score) [6]: 0.484
glycan array binding signal (z-score) [7]: 1.92
glycan array binding signal (z-score) [8]: 1.63
glycan array binding signal (z-score) [9]: 2.6
glycan array binding signal (z-score) [10]: 1.08
glycan array binding signal (z-score) [11]: 1.29
glycan array binding signal (z-score) [12]: -0.13
glycan array binding signal (z-score) [13]: 0.642
glycan array binding signal (z-score) [14]: -0.293
glycan array binding signal (z-score) [15]: 0.117
glycan array binding signal (z-score) [16]: -0.887
glycan array binding signal (z-score) [17]: -0.744
glycan array binding signal (z-score) [18]: -0.85
glycan array binding signal (z-score) [19]: -0.594
